These are yes or no findings as the source states them, for the method shown. In cells and extracts the contact can be indirect. Some results given as binding are weak or reduced against the parent protein; the word gives no strength.
Molecular target: LIX1L (Myc-DDK-tagged) (human) (UniProt Q8IVB5)
Assay: co-IP; HEK293T co-transfected with DCHS1-V5 and LIX1L-FLAG; RIPA lysate; anti-FLAG M2 magnetic beads overnight at 4 °C; washes in TBS; blot with anti-V5 and anti-FLAG

Protein sequences, listed by entry. Tags and fused reporters are not part of them. Residues count along the entry.
UniProt Q8IVB5: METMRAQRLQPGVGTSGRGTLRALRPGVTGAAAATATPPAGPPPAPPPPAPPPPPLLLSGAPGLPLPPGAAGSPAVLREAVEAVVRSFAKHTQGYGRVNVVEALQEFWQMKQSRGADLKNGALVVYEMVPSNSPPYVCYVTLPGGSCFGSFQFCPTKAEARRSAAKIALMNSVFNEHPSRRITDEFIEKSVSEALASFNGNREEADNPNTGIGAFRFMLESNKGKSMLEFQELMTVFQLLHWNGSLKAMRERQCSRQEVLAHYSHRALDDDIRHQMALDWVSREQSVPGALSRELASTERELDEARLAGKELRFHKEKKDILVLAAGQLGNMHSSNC
UniProt Q96JQ0, residues 43-3298: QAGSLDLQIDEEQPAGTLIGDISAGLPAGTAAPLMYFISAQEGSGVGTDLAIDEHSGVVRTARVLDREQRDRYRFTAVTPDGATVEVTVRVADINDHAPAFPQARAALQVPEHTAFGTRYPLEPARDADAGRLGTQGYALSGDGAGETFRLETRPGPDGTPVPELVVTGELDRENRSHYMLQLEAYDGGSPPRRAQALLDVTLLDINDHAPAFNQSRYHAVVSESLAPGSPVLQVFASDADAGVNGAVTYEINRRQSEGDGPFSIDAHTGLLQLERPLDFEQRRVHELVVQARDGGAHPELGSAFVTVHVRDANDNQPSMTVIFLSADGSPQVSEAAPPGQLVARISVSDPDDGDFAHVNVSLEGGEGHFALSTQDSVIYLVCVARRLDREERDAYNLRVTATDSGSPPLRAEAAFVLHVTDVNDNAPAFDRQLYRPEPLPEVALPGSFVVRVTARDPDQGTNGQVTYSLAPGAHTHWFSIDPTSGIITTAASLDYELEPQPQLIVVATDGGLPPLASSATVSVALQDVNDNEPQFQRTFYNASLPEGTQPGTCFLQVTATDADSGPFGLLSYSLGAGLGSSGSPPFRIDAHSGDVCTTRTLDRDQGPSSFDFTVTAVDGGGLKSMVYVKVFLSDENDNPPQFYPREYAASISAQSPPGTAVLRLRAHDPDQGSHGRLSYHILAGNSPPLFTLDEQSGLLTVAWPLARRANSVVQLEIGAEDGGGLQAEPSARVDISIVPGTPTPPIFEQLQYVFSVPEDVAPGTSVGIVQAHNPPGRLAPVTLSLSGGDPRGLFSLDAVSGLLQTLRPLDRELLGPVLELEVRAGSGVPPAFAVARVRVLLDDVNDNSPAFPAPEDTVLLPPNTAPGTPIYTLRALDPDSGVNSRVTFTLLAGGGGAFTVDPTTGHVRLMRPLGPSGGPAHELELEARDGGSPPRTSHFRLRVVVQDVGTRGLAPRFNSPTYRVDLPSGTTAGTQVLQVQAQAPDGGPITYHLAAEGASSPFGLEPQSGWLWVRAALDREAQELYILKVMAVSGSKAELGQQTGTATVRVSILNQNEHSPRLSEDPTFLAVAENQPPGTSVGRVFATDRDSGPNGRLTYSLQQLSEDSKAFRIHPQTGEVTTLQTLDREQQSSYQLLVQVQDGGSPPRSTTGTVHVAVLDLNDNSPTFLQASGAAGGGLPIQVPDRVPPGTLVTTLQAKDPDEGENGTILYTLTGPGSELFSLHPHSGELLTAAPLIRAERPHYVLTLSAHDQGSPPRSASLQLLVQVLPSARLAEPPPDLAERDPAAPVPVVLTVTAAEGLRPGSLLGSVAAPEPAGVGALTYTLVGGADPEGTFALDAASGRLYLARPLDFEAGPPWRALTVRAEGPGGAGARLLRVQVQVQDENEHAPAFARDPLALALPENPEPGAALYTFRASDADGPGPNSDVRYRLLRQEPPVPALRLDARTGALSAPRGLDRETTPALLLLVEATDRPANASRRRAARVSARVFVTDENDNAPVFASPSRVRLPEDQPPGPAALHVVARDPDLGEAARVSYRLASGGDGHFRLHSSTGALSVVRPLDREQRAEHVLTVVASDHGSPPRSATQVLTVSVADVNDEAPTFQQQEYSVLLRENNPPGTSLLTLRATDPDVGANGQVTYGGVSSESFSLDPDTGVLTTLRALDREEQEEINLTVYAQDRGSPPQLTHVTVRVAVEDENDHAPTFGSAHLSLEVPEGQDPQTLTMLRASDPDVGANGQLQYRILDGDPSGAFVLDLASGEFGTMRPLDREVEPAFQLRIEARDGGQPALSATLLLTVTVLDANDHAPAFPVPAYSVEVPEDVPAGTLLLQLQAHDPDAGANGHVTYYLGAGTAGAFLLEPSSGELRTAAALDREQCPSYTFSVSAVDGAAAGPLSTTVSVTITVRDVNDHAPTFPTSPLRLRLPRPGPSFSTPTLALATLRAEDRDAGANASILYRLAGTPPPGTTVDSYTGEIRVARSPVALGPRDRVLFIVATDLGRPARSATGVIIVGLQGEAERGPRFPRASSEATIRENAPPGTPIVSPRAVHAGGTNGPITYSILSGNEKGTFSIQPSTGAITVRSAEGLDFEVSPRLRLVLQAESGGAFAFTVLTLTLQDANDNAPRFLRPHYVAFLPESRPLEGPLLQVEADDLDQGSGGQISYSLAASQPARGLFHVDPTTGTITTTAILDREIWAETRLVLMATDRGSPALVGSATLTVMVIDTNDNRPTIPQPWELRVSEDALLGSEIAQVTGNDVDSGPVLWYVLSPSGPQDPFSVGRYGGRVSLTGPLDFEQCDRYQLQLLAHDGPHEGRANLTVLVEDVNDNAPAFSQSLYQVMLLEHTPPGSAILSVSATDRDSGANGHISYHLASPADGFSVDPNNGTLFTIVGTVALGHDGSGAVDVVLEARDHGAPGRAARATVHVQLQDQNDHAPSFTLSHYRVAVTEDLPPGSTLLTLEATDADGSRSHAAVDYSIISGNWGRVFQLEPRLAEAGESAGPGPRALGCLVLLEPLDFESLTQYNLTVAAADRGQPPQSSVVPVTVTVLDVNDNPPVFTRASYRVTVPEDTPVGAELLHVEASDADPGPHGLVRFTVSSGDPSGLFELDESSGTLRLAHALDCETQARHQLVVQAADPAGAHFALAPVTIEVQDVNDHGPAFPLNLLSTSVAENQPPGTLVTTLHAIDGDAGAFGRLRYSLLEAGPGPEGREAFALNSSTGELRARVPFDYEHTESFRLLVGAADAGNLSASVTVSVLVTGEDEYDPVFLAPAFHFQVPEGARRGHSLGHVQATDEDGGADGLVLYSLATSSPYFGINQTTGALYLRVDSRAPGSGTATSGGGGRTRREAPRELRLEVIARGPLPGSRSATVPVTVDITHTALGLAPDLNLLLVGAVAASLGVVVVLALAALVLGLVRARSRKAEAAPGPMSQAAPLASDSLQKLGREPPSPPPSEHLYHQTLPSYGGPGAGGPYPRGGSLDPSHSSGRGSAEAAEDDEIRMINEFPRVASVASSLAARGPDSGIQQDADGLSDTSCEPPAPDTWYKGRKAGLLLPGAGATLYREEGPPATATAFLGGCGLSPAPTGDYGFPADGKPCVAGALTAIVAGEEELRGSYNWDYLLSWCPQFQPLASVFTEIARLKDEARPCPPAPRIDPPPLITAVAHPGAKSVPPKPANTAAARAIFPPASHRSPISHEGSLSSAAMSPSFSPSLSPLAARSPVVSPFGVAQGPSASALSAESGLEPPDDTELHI

binding: binds
Substance: DCHS1 with V5 tag (from UniProt Q96JQ0 43-3298)
